The assay concerns the target endogenous GUS activity in whole E. coli cells (Escherichia coli, UniProt P05804). Description: GUS cell based assay (whole E. coli cells, 4MUG). The conditions noted are these: running text. Here is the method: An E. coli cell based assay was developed in order to assess the activity of these drugs against whole cells, instead of purified enzyme. We took advantage of the well-known specificity and sensitivity of the 4MUG substrate to detect GUS activity in E. coli cells. This assay mimicked the enzyme assay in format, with the GUS enzyme replaced by live log-phase E. coli cells and the assay incubated for a longer time (2 hr) to detect GUS activity in these un-modified cells.
Cultures of E col (DH5α) carrying the empty expression vector pCMV5 were grown over night in LB containing carbenicilin (50 μM) and then used to initiate fresh LB/carbenicillin cultures adjusted to an initial OD of 0.1. These cultures were allowed to reach an OD of 0.6 and then washed twice with 50 mM HEPES, pH 7.4 containing carbenicillin 50 μM, and concentrated by centrifugation to an OD of 1 for use in the assay. The GUS cell based assay was performed in an identical manner as the enzyme assay except the Triton X-100 was left out of the assay buffer, the E. coli cells replaced the enzyme and the reaction was allowed to proceed for 2 hrs at 37° C. The resulting data was analyzed as outlined for the enzyme assay.

By UniProt entry, the sequences of proteins in these tests, tags left out. Where a name states a change or a piece, a line headed by the entry shows the natural chain unless it says otherwise.
UniProt P05804: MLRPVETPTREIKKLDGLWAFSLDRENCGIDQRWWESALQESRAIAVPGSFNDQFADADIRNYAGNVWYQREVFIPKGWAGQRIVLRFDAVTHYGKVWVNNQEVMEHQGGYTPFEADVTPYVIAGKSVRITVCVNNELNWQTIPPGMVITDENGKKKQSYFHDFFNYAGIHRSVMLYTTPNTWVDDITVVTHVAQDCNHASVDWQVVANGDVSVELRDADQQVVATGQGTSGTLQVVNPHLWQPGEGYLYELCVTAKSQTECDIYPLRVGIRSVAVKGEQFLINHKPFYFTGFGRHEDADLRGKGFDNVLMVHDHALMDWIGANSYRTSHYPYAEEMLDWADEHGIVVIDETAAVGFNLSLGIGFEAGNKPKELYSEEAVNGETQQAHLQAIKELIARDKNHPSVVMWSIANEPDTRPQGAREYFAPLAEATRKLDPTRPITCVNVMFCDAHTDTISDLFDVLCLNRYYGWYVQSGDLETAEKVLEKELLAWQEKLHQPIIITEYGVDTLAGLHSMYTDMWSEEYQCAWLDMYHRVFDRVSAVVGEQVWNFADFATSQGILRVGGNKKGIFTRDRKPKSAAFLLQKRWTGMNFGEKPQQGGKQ

The IC50 is the concentration that inhibits the measured activity by half. A higher IC50 goes with lower potency.

The molecule `Clc1ccc2c(c1)C(N1CCNCC1)=Nc1ccccc1O2` [Amoxapine, amoxapine] displayed a concentration for half-maximal inhibition (IC50) of 0.119 ± 0.061 µM.

Source of the values: patent US20210087163A1, “PHENOXY THIOPHENE SULFONAMIDES AND OTHER COMPOUNDS FOR USE AS INHIBITORS OF BACTERIAL GLUCURONIDASE” (NORTH CAROLINA CENTRAL UNIVERSITY, priority 2010, published 2021).
